Results deposited as PubChem BioAssay AID652272 (Drosophila RNAi Screening Center, 2013).
Assay: 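Finding fly genes that regulate Hedgehog signal transduction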 (primary screen). Cell system: Drosophila clone 8 (Cl8) cells. Reagent: long dsRNA against Drosophila genes. Measured: 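Firefly light from a Hedgehog-responsive ptc promoter reporter and Renilla reference light, both read on a plate reader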. Reading the numbers: firefly Hh reporter signal: higher = more ptc reporter light; Renilla reference signal: higher = more Renilla control light. Hit rule: 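Hit when the z-score averaged over two replicates is under -2 or over +3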. Meaning of the calls: active = hit: reporter lowered or raised; inactive = not a hit.
In all, the deposit lists about 21,000 reagents; this is a random part of those that have a named target and a result. Over the whole deposit, 503 (2.4%) got an active call. 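Raw plate light values, not normalised; calls rest on replicate z-scores that were not deposited; hits include reporter decreases as well as increases.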 A plus sign joins genes that one reagent is predicted to hit. Reagent sequences are not shown. Not stated in the record: the amount of reagent, the time to read-out.

With CG31659 (GeneID 318875) [DRSC00760], how do the results read?
firefly Hh reporter signal, replicate 1: 1.19e5; firefly Hh reporter signal, replicate 2: 87256; Renilla reference signal, replicate 1: 2580; Renilla reference signal, replicate 2: 2324; Outcome: inactive

Which result is listed for eIF3c (GeneID 37005) [DRSC06905]?
firefly Hh reporter signal, replicate 1: 38356; firefly Hh reporter signal, replicate 2: 28214; Renilla reference signal, replicate 1: 1306; Renilla reference signal, replicate 2: 2240; Outcome: inactive

For MED11 (GeneID 40042) [DRSC10739], how do the results read?
firefly Hh reporter signal, replicate 1: 29042; Renilla reference signal, replicate 1: 2424; Renilla reference signal, replicate 2: 700; Outcome: inactive

For CG13040 (GeneID 39804) [DRSC09921], how do the results read?
firefly Hh reporter signal, replicate 1: 1.42e5; Renilla reference signal, replicate 1: 7475; Renilla reference signal, replicate 2: 4277; Outcome: inactive

How did the screen score CG14434 (GeneID 31632) [DRSC17927]?
firefly Hh reporter signal, replicate 1: 72695; firefly Hh reporter signal, replicate 2: 1.50e5; Renilla reference signal, replicate 1: 3236; Renilla reference signal, replicate 2: 5664; Outcome: inactive

Which result is listed for CG14662 + asRNA:CR43478 [DRSC12248]?
firefly Hh reporter signal, replicate 1: 68906; firefly Hh reporter signal, replicate 2: 72811; Renilla reference signal, replicate 1: 2794; Renilla reference signal, replicate 2: 1160; Outcome: inactive

How did the screen score CG7164 (GeneID 34061) [DRSC03018]?
firefly Hh reporter signal, replicate 1: 1.24e5; firefly Hh reporter signal, replicate 2: 60529; Renilla reference signal, replicate 1: 3027; Renilla reference signal, replicate 2: 5389; Outcome: inactive

With Ctr1B + Poxm [DRSC16245], how do the results read?
firefly Hh reporter signal, replicate 1: 83176; firefly Hh reporter signal, replicate 2: 1.13e5; Renilla reference signal, replicate 1: 3648; Renilla reference signal, replicate 2: 3300; Outcome: inactive

3 successive records from above, quoted:
CG31659 (GeneID 318875) [DRSC00760] → firefly Hh reporter signal, replicate 1 = 1.19e5; firefly Hh reporter signal, replicate 2 = 87256; Renilla reference signal, replicate 1 = 2580; Renilla reference signal, replicate 2 = 2324; Outcome = inactive
eIF3c (GeneID 37005) [DRSC06905] → firefly Hh reporter signal, replicate 1 = 38356; firefly Hh reporter signal, replicate 2 = 28214; Renilla reference signal, replicate 1 = 1306; Renilla reference signal, replicate 2 = 2240; Outcome = inactive
MED11 (GeneID 40042) [DRSC10739] → firefly Hh reporter signal, replicate 1 = 29042; Renilla reference signal, replicate 1 = 2424; Renilla reference signal, replicate 2 = 700; Outcome = inactive

The list goes on.
How did the screen score CG7326 (GeneID 32882) [DRSC20037]?
firefly Hh reporter signal, replicate 1: 54080; firefly Hh reporter signal, replicate 2: 1.56e5; Renilla reference signal, replicate 1: 1172; Renilla reference signal, replicate 2: 7744; Outcome: inactive

Which result is listed for CG14857 (GeneID 41791) [DRSC14981]?
firefly Hh reporter signal, replicate 1: 80199; firefly Hh reporter signal, replicate 2: 61152; Renilla reference signal, replicate 1: 2839; Renilla reference signal, replicate 2: 1881; Outcome: inactive

How did the screen score CG6262 (GeneID 36833) [DRSC06971]?
firefly Hh reporter signal, replicate 1: 51676; firefly Hh reporter signal, replicate 2: 31234; Renilla reference signal, replicate 1: 1765; Renilla reference signal, replicate 2: 2064; Outcome: inactive

With Tsr1 (GeneID 40360) [DRSC11821], how do the results read?
firefly Hh reporter signal, replicate 1: 77355; firefly Hh reporter signal, replicate 2: 45874; Renilla reference signal, replicate 1: 3397; Renilla reference signal, replicate 2: 1177; Outcome: inactive

For m-cup (GeneID 42076) [DRSC14430], what does the deposit list?
firefly Hh reporter signal, replicate 1: 59244; firefly Hh reporter signal, replicate 2: 87901; Renilla reference signal, replicate 1: 1602; Renilla reference signal, replicate 2: 5815; Outcome: inactive

How did the screen score CG30479 (GeneID 36631) [DRSC06735]?
firefly Hh reporter signal, replicate 1: 70972; firefly Hh reporter signal, replicate 2: 29392; Renilla reference signal, replicate 1: 2048; Renilla reference signal, replicate 2: 2577; Outcome: inactive

For CG17470 (GeneID 35321) [DRSC02621], what was measured?
firefly Hh reporter signal, replicate 1: 75891; firefly Hh reporter signal, replicate 2: 43037; Renilla reference signal, replicate 1: 3017; Renilla reference signal, replicate 2: 1827; Outcome: inactive

With meru (GeneID 39727) [DRSC09400], what does the deposit list?
firefly Hh reporter signal, replicate 1: 2.06e5; Renilla reference signal, replicate 1: 5637; Outcome: inactive

What did the screen give for meru (GeneID 39727) [DRSC09899]?
firefly Hh reporter signal, replicate 1: 63989; Renilla reference signal, replicate 1: 4675; Renilla reference signal, replicate 2: 2396; Outcome: active

With meru (GeneID 39727) [DRSC10215], what does the deposit list?
firefly Hh reporter signal, replicate 1: 1.10e5; Renilla reference signal, replicate 1: 5600; Renilla reference signal, replicate 2: 3121; Outcome: inactive

For Mal-B1 (GeneID 34597) [DRSC02416], what was measured?
firefly Hh reporter signal, replicate 1: 1.38e5; firefly Hh reporter signal, replicate 2: 60874; Renilla reference signal, replicate 1: 1888; Renilla reference signal, replicate 2: 5169; Outcome: inactive

With Cyp313a5 (GeneID 41486) [DRSC16628], how do the results read?
firefly Hh reporter signal, replicate 1: 1.09e5; firefly Hh reporter signal, replicate 2: 1.94e5; Renilla reference signal, replicate 1: 3136; Renilla reference signal, replicate 2: 4967; Outcome: inactive

With CG7016 (GeneID 42968) [DRSC16174], what does the deposit list?
firefly Hh reporter signal, replicate 1: 6.44e5; firefly Hh reporter signal, replicate 2: 1.41e5; Renilla reference signal, replicate 1: 33136; Renilla reference signal, replicate 2: 3987; Outcome: inactive
